Data from the supplement of paper PMC12819154, “High-throughput peptide-centric local stability assay extends protein–ligand identification to membrane proteins, tissues and bacteria” (Nature Structural & Molecular Biology, 2025).
The other results are listed elsewhere or left out. Small differences around the control level are noise.

Sequences of proteins named here, by UniProt entry; tags and fusion partners are left off. A change or cut given only in a name is not applied to a line headed by its entry.
UniProt P60469: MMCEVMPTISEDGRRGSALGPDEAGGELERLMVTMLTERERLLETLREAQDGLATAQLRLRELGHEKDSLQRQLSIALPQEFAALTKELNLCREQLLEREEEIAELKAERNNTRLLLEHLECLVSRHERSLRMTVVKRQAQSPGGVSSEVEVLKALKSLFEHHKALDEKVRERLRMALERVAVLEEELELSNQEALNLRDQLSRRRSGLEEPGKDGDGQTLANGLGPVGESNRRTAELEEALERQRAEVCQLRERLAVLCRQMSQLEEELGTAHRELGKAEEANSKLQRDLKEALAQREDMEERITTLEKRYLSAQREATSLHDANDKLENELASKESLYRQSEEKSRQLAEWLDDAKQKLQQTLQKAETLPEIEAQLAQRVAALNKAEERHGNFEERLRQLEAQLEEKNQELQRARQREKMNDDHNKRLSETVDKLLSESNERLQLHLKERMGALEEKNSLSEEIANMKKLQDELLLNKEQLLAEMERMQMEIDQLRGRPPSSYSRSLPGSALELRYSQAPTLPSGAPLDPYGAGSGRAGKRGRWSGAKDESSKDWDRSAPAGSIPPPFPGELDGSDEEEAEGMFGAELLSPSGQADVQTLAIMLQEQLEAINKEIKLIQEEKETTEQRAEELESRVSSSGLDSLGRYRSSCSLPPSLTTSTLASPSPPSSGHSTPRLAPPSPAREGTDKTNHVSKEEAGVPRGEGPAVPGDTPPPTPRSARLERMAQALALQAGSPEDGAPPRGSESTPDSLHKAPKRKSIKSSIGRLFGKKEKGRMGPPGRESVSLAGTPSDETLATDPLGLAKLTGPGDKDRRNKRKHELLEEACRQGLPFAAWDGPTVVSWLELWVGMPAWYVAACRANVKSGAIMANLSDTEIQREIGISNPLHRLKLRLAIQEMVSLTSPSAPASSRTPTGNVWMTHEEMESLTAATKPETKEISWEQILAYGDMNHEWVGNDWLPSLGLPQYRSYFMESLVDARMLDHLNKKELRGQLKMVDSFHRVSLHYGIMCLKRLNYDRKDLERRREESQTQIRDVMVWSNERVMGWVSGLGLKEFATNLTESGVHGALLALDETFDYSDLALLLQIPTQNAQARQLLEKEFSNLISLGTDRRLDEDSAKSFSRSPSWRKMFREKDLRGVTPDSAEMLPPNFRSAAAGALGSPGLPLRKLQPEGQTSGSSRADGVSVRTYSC
UniProt P57776: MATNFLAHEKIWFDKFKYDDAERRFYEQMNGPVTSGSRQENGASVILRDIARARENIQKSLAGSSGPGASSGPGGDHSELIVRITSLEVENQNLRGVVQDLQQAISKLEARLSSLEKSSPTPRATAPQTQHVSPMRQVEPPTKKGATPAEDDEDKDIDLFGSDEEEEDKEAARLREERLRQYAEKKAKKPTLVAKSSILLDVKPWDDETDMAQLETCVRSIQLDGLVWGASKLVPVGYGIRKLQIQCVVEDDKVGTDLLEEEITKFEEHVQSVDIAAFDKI
UniProt P55302: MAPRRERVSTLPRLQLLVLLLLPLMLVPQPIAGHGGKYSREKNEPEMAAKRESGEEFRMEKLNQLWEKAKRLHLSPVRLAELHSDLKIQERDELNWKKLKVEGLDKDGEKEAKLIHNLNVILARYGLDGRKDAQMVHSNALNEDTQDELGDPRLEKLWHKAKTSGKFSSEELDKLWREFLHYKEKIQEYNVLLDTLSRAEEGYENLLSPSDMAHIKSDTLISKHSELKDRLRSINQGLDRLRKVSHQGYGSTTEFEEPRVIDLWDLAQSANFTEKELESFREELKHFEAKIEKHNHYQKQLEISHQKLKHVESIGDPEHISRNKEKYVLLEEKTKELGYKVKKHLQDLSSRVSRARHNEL
UniProt P63073, whole entry: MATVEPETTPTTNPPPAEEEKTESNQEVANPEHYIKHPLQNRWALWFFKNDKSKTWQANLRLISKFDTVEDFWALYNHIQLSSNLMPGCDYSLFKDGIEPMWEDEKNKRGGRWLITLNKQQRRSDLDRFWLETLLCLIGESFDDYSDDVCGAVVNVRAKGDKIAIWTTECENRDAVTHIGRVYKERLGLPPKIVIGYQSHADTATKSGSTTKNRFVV
UniProt P58058: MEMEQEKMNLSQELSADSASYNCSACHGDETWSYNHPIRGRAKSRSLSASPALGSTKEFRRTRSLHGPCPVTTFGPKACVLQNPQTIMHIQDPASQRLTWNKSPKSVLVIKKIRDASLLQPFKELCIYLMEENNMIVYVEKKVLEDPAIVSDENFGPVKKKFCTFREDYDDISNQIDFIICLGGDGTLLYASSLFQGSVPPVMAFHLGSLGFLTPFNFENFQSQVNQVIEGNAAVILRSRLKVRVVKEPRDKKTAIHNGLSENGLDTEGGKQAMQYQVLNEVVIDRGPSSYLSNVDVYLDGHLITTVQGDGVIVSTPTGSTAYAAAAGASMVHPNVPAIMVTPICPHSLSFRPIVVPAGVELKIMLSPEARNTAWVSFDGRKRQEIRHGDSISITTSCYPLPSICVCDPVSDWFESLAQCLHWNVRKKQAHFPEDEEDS
UniProt P62075: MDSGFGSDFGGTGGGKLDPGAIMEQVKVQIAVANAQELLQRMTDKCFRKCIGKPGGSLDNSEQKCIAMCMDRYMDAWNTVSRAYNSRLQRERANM
UniProt P54841: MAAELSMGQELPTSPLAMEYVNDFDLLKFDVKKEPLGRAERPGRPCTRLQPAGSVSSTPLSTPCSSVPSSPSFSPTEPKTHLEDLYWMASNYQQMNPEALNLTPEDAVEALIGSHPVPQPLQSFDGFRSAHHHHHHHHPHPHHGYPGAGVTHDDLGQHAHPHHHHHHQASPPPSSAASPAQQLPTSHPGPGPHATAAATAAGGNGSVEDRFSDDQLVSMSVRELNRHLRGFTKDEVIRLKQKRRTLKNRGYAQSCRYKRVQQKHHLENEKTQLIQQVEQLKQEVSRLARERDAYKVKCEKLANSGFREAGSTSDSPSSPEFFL
UniProt P56384: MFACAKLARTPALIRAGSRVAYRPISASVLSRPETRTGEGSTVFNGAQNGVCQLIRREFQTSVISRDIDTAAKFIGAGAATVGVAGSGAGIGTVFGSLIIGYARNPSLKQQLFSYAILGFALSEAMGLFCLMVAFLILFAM
UniProt P59110: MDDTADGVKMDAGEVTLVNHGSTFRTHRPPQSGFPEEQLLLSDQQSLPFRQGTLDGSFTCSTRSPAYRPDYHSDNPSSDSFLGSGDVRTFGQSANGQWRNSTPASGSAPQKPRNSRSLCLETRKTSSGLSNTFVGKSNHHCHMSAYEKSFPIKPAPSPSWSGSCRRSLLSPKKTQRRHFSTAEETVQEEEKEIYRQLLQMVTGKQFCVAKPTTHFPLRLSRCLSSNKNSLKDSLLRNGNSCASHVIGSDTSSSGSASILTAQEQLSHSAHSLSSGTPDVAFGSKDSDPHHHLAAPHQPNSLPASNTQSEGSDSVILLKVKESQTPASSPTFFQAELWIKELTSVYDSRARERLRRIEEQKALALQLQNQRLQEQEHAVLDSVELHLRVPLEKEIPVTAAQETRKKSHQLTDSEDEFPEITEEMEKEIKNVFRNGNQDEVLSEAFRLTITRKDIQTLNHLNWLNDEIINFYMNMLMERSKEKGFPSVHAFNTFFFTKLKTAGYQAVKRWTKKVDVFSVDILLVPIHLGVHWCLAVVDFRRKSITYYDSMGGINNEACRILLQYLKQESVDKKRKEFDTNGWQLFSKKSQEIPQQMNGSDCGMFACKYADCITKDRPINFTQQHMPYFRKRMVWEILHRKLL
UniProt P62814, whole entry: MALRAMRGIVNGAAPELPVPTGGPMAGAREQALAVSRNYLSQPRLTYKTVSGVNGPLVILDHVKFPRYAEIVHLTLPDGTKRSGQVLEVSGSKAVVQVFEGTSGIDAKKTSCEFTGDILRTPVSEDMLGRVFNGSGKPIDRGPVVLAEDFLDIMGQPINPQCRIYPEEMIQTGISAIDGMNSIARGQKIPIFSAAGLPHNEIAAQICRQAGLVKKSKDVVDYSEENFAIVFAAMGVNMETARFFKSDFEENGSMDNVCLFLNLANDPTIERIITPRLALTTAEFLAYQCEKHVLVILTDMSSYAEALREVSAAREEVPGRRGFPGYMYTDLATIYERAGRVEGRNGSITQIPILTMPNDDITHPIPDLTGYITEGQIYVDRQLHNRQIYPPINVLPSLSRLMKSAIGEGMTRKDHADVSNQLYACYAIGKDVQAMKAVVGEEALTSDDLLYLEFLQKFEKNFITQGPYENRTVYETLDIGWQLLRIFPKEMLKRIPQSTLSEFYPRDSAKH
UniProt P59729: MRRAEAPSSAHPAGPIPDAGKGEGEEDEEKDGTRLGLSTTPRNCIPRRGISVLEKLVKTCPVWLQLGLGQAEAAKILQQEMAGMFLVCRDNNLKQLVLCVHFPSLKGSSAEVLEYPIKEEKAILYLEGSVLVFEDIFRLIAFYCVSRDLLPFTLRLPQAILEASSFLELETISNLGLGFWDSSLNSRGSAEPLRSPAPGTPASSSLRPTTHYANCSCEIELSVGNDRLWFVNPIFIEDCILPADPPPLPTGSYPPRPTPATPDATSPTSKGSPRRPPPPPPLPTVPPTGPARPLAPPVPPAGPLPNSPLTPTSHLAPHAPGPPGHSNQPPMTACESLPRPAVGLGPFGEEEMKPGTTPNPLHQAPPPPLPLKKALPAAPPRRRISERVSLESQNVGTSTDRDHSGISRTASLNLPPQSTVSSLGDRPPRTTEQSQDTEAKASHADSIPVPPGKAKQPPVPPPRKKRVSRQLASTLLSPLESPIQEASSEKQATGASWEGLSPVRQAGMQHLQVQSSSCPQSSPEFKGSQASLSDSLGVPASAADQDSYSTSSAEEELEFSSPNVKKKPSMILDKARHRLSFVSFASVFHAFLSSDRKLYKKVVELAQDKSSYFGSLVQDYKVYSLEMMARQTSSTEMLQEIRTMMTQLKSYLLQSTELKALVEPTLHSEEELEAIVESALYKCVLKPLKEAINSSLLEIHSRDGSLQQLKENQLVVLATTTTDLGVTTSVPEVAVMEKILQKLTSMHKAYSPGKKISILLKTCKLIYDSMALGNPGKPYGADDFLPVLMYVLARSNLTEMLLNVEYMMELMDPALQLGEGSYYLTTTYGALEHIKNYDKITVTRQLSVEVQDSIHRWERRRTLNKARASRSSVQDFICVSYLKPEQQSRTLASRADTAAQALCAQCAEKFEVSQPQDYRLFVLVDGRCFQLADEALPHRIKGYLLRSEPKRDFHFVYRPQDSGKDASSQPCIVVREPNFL
UniProt P55258: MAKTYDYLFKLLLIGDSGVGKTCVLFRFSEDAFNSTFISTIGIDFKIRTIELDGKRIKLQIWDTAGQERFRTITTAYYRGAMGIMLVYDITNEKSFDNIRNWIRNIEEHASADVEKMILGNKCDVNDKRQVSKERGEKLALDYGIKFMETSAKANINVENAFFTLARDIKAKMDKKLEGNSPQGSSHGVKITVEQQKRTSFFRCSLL
UniProt P62046: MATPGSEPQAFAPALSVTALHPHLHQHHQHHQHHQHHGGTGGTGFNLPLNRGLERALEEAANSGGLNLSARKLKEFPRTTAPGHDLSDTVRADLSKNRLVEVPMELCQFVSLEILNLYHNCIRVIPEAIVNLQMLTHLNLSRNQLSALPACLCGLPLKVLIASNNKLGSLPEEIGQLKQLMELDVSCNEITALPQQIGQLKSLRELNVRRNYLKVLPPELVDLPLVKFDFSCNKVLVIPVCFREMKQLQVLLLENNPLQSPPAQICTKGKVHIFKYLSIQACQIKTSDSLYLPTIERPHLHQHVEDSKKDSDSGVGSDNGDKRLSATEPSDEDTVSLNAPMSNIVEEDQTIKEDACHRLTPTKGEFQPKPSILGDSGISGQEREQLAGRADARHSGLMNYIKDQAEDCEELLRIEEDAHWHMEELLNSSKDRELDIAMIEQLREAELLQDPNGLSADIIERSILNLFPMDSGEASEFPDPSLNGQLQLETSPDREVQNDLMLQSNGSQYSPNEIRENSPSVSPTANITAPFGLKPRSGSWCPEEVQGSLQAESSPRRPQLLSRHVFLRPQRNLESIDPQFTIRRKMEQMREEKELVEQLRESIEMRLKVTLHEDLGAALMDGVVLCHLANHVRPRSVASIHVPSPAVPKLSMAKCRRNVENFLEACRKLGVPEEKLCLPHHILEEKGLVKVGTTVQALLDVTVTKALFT
UniProt P58710: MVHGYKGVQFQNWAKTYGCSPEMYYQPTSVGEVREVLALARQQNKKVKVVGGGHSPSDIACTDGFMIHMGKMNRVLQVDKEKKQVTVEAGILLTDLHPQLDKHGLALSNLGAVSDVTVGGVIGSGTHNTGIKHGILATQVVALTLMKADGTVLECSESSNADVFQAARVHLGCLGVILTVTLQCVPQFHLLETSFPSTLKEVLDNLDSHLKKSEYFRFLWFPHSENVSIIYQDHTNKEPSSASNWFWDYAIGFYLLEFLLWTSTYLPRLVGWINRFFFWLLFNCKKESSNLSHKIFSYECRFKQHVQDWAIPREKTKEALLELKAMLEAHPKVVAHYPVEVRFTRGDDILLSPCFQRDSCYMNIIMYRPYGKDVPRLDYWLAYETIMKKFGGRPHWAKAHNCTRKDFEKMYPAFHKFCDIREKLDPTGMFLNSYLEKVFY

Compound: CN[C@@H]1C[C@H]2O[C@@](C)([C@@H]1OC)n1c3ccccc3c3c4c(c5c6ccccc6n2c5c31)C(=O)NC4 [staurosporine]
Assay: log2 fold change of tryptic peptide abundance, ligand vs vehicle (limited proteolysis) (log2 ratio); higher = more trypsin-susceptible (destabilized)
Details: ligand concentration: 20 uM; sample: mouse liver crude lysate; replicate design: treated separately

Which log2 fold change does the source give for “UniProt P56399 (peptide sequence: DGLGGLPDIVRDR, peptide start residue: 134)” here?
The log2 fold change was -0.404.

Which log2 fold change does the source give for “UniProt P62484 (peptide sequence: RMESSINHISQTVDIHKEK, peptide start residue: 85)” here?
The log2 fold change was -0.463.

How did the log2 fold change turn out when “UniProt P60469 (peptide sequence: EIGISNPLHR, peptide start residue: 942)” was run?
The log2 fold change was 0.142.

For “UniProt P59235 (peptide sequence: SSLFHQGGR, peptide start residue: 299)”, which log2 fold change is on record?
Its log2 fold change is 0.00821.

“UniProt P57776 (peptide sequence: GVVQDLQQAISKLEAR, peptide start residue: 96)” was tested. Which log2 fold change did it give?
Its log2 fold change is -0.405.

For “UniProt P55302 (peptide sequence: NEPEMAAK, peptide start residue: 43)”, which log2 fold change is on record?
Its log2 fold change is -0.562.

How did the log2 fold change turn out when “UniProt P63073 (peptide sequence: WALWFFK, peptide start residue: 43)” was run?
The log2 fold change was -1.38.

How did the log2 fold change turn out when “UniProt P63017 (peptide sequence: MVNHFIAEFK, peptide start residue: 237)” was run?
The log2 fold change was 0.43.

With “UniProt P58058 (peptide sequence: SLHGPCPVTTFGPK, peptide start residue: 64)” as the target, how does the log2 fold change read?
The log2 fold change was 0.159.

With “UniProt P62862 (peptide sequence: RFVNVVPTFGK, peptide start residue: 115)” as the target, how does the log2 fold change read?
The log2 fold change was 0.0928.

“UniProt P62075 (peptide sequence: LDPGAIMEQVK, peptide start residue: 17)” was tested. Which log2 fold change did it give?
The log2 fold change was 0.0618.

Which log2 fold change does the source give for “UniProt P54841 (peptide sequence: GFTKDEVIR, peptide start residue: 230)” here?
Its log2 fold change is 0.0621.

How did the log2 fold change turn out when “UniProt P55065 (peptide sequence: VTSAALDLVK, peptide start residue: 26)” was run?
Its log2 fold change is -0.225.

“UniProt P58771 (peptide sequence: CAELEEELKTVTNNLK, peptide start residue: 190)” was tested. Which log2 fold change did it give?
Its log2 fold change is -0.119.

For “UniProt P56183 (peptide sequence: AFWQTMIR, peptide start residue: 98)”, which log2 fold change is on record?
Its log2 fold change is 0.34.

For “UniProt P58269 (peptide sequence: LLEIKPEVELPLKK, peptide start residue: 95)”, which log2 fold change is on record?
The log2 fold change was -0.0212.

Which log2 fold change does the source give for “UniProt P56384 (peptide sequence: VAYRPISASVLSRPETR, peptide start residue: 20)” here?
Its log2 fold change is 0.695.

Which log2 fold change does the source give for “UniProt P59110 (peptide sequence: MDAGEVTLVNHGSTFR, peptide start residue: 10)” here?
Its log2 fold change is -0.495.

How did the log2 fold change turn out when “UniProt P61213 (peptide sequence: TVTFHFWDVGGQEK, peptide start residue: 68)” was run?
The log2 fold change was -0.208.

Which log2 fold change does the source give for “UniProt P62814 (peptide sequence: YAEIVHLTLPDGTK, peptide start residue: 68)” here?
The log2 fold change was 0.345.

“UniProt P63002 (peptide sequence: HSGSSHLPQQLK, peptide start residue: 8)” was tested. Which log2 fold change did it give?
The log2 fold change was -0.0281.

For “UniProt P59729 (peptide sequence: SYLLQSTELK, peptide start residue: 650)”, which log2 fold change is on record?
The log2 fold change was -0.353.

With “UniProt P54320 (peptide sequence: VAGAAPPAAAAAAAK, peptide start residue: 705)” as the target, how does the log2 fold change read?
The log2 fold change was 0.256.

“UniProt P55200 (peptide sequence: TPCLSAPSSSTVK, peptide start residue: 985)” was tested. Which log2 fold change did it give?
The log2 fold change was 0.65.

For “UniProt P55258 (peptide sequence: LEGNSPQGSSHGVK, peptide start residue: 177)”, which log2 fold change is on record?
Its log2 fold change is -0.284.

For “UniProt P61750 (peptide sequence: NICFTVWDVGGQDKIRPLWR, peptide start residue: 60)”, which log2 fold change is on record?
Its log2 fold change is -0.133.

With “UniProt P56671 (peptide sequence: SHDGAVHKPYNCSHCGK, peptide start residue: 328)” as the target, how does the log2 fold change read?
The log2 fold change was -0.561.

Which log2 fold change does the source give for “UniProt P61219 (peptide sequence: RITTPYMTK, peptide start residue: 51)” here?
Its log2 fold change is -0.454.

For “UniProt P62046 (peptide sequence: DRELDIAMIEQLR, peptide start residue: 431)”, which log2 fold change is on record?
The log2 fold change was -0.0805.

How did the log2 fold change turn out when “UniProt P58710 (peptide sequence: AMLEAHPK, peptide start residue: 325)” was run?
Its log2 fold change is -0.31.

“UniProt P60334 (peptide sequence: NLVDQGNGK, peptide start residue: 61)” was tested. Which log2 fold change did it give?
The log2 fold change was -0.299.
